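HEK-293 cells carrying an ATXN2-luciferase reporter; luminescence signal loss after 24 h of compound exposure, with a parallel cell viability readout. Compounds were tested as a dilution series from about 0.0037 to 57 µM. The number is the fitted half-maximal inhibitory concentration (AC50); a lower value means a more potent inhibitor. Calls come from curve class and activity score: actives score 40–100, while inconclusive compounds (weak, partial, poorly fitted or single-point curves) score 1–39.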

Values are in µM. Every entry below has the call inconclusive. These entries are mostly ones the record files as inconclusive; other results of the assay are not listed here. A potency from a partial, single-point or poor curve is only a rough figure. Activity scores are not listed here.

COc1ccc2c(Cl)c(C(=O)NN)sc2c1 gave fitted potency 7.08 µM (inhibitor, single point). For O=C(Nc1cccc(Br)c1)c1ccc(Cl)c(S(=O)(=O)N2CCOCC2)c1 the result was fitted potency 4.467 µM (inhibitor, single point). COc1ccc(OCCNC(=O)C2(C)CCN2Cc2ccc3ccccc3c2)cc1 (stereo not drawn) read fitted potency 25.12 µM (inhibitor, partial curve, poor fit). With O=C(Nc1ccc(Br)cc1)c1cccc(OC(=S)N2CCOCC2)c1 the assay gave fitted potency 1.778 µM (inhibitor, partial curve, poor fit). For O=C(Nc1cccc(Cl)c1)c1ccc2c(c1)SC1=NS(=O)(=O)CCN12 the result was fitted potency 2.239 µM (inhibitor, partial curve). c1ccc2c(c1)C(=NC1CCCCC1)NC2=NC1CCCCC1 gave fitted potency 28.18 µM (inhibitor, partial curve, poor fit). N#Cc1cn(C2OC(CO)C(O)C2O)c2ncnc(N)c12 (stereo not drawn) read fitted potency 0.0251 µM (inhibitor, full curve, poor fit).

With CC(=O)Nc1ccc(N(CC(O)Cn2c3ccccc3c3ccccc32)S(=O)(=O)c2ccc(C)cc2)cc1 (stereo not drawn) the assay gave fitted potency 25.12 µM (inhibitor, partial curve, poor fit). With COc1cc(Br)cc(/C=N/NC(=O)Cc2ccccc2)c1O the assay gave fitted potency 3.548 µM (inhibitor, single point). Result for COc1cccc(C(NC(C)=O)c2ccc3cccnc3c2O)c1 (stereo not drawn) was fitted potency 3.162 µM (inhibitor, full curve, poor fit). With CCn1c2ccccc2c2cc(NC(=O)COC(=O)c3cccc(S(=O)(=O)NC)c3)ccc21 the assay gave fitted potency 19.95 µM (inhibitor, partial curve, poor fit). With Cc1ccc(S(=O)(=O)c2nc(NCc3ccc4c(c3)OCO4)sc2Cl)cc1 the assay gave fitted potency 15.85 µM (inhibitor, partial curve, poor fit). With Cc1ccc(C)c(CN2CCC(CNC(=O)Nc3ccc(C)c(C)c3)CC2)c1 the assay gave fitted potency 19.95 µM (inhibitor, single point). For CN(C)C(CNC(=O)c1cccc(S(=O)(=O)N2CCN(c3ccc(F)cc3)CC2)c1)c1ccccc1 (stereo not drawn) the result was fitted potency 28.18 µM (inhibitor, single point).

Cc1ccccc1S(=O)(=O)Cc1ccc(C(=O)N2CCN(c3cccc(C)c3C)CC2)o1 read fitted potency 2.512 µM (inhibitor, partial curve, poor fit). For CN(C)CCNc1ccc(CO)c2sc3ccc(O)cc3c(=O)c12 the result was fitted potency 1.259 µM (inhibitor, full curve, poor fit). Result for CCN(CC)S(=O)(=O)c1ccc(NC(=O)Nc2cccc(C(F)(F)F)c2)cc1 was fitted potency 3.162 µM (inhibitor, single point). Result for CC(=O)c1c(C)[nH]c(C(=O)Nc2nc(-c3ccc(-c4ccccc4)cc3)cs2)c1C was fitted potency 19.95 µM (inhibitor, partial curve, poor fit). CC1CC(C)C[N+](=C2C=C(N3CCCC3)CC(C)(C)C2)C1 (stereo not drawn) read fitted potency 1.122 µM (inhibitor, partial curve, poor fit). CCN(Cc1ccccc1)S(=O)(=O)c1ccc(C(=O)Nc2nnc(C3CC3)o2)cc1 read fitted potency 2.818 µM (inhibitor, partial curve).

The first 2 entries again:

| Compound | fitted potency (µM) | curve as filed |
|---|---|---|
| `COc1ccc2c(Cl)c(C(=O)NN)sc2c1` | 7.08 | inhibitor, single point |
| `O=C(Nc1cccc(Br)c1)c1ccc(Cl)c(S(=O)(=O)N2CCOCC2)c1` | 4.467 | inhibitor, single point |

The results are deposited in PubChem (AID1745848; NCATS, 2022).